Data source: PubChem BioAssay AID1224826 (NIAID, 2016)

- Purpose: 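Regulators of Tlr4 signalling leading to Tnf-alpha expression in macrophages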 (primary screen)
- Cells: RAW264.7 G9 macrophages from mouse bearing reporters for p65 (GFP) and the Tnf promoter (mCherry)
- Reagent: siRNA pool against mouse genes, 100 nM
- Time to read-out: 16 h of LPS stimulation, after 2 days of siRNA transfection
- Treatment: bacterial lipopolysaccharide (Salmonella minnesota R595), 10 ng/ml
- Detection: 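Imaged Tnf reporter mCherry in nuclei, minus background, normalised per plate to the median and expressed as robust z-scores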
- Direction: Tnf reporter robust z-score: higher = stronger Tnf promoter reporter signal after LPS
- Active means: 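a well counts as active at a score of -1.3 or below (Tlr4 knock-down control median) or above 3 (raised signal); controls and wells holding fewer than 50 cells are excluded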
- Meaning of the calls: active = Tnf reporter clearly lowered or raised; inactive = no clear change in Tnf reporter
This is one part, drawn at random, of about 17,000 reagents. In the full data, about 1,110 (6.6%) are marked active. 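Active means lowered or raised reporter signal; replicate intensities are raw and not normalised per plate.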 Not all columns of the deposit are shown.

What did the screen give for Ifi204 [SID315467381]?
Tnf reporter robust z-score: -1.7; fewer than 50 cells in well: enough cells in well; Call: active

What did the screen give for Usp24 [SID315481554]?
Tnf reporter robust z-score: 1.75; fewer than 50 cells in well: enough cells in well; Call: inactive

With Or10u3 [SID315479960], how do the results read?
Tnf reporter robust z-score: -0.91; fewer than 50 cells in well: enough cells in well; Call: inactive

With Enpp1 [SID315468454], what was measured?
Tnf reporter robust z-score: 0.62; fewer than 50 cells in well: enough cells in well; Call: inactive

What did the screen give for Ercc6l [SID315479319]?
Tnf reporter robust z-score: 0.03; fewer than 50 cells in well: enough cells in well; Call: inactive

Reformatted: 2 of the entries above
{"gene symbol":"Enpp1","PubChem SID":"SID315468454","Tnf reporter robust z-score":0.62,"fewer than 50 cells in well":"enough cells in well","Call":"inactive"}
{"gene symbol":"Ercc6l","PubChem SID":"SID315479319","Tnf reporter robust z-score":0.03,"fewer than 50 cells in well":"enough cells in well","Call":"inactive"}

More records follow.
With Zfp688 [SID315473761], what does the deposit list?
fewer than 50 cells in well: fewer than 50 cells per well; well left out of calls; Call: inactive

What did the screen give for 2610318N02Rik [SID315474059]?
Tnf reporter robust z-score: -0.15; fewer than 50 cells in well: enough cells in well; Call: inactive

For Npc2 [SID315473337], what was measured?
Tnf reporter robust z-score: -0.3; fewer than 50 cells in well: enough cells in well; Call: inactive

Which result is listed for Zfp369 [SID315477259]?
Tnf reporter robust z-score: 0.4; fewer than 50 cells in well: enough cells in well; Call: inactive

For Kcng3 [SID315478395], how do the results read?
Tnf reporter robust z-score: 0.49; fewer than 50 cells in well: enough cells in well; Call: inactive

With Or5b112 [SID315480341], what was measured?
Tnf reporter robust z-score: 1.43; fewer than 50 cells in well: enough cells in well; Call: inactive

For Wrnip1 [SID315475645], what was measured?
Tnf reporter robust z-score: -0.57; fewer than 50 cells in well: enough cells in well; Call: inactive
